Data as given in PubChem BioAssay AID743255 (National Center for Advancing Translational Sciences (NCATS), 2014).
Several values for one entry are separate records, joined by “and”; a condition that tells them apart may be missing. Identical values can stand only once. The whole screen tested about 390,000 compounds, of which about 910 (0.23%) were called active. The shares of active, inactive and inconclusive entries below differ from those in the screen. Calls follow the shape of the dose curve; as a rule, active = well fitted inhibition curve with a large enough effect; inconclusive = small, poorly fitted or top-dose-only effect; inactive = no such curve, though single readings can be large or run the other way. Potencies beside an inconclusive call are fits to weak or partial responses and may not hold up.

Sequences of proteins named here, by UniProt entry; tags and fusion partners are left off. A change or cut given only in a name is not applied to a line headed by its entry.
UniProt O94782: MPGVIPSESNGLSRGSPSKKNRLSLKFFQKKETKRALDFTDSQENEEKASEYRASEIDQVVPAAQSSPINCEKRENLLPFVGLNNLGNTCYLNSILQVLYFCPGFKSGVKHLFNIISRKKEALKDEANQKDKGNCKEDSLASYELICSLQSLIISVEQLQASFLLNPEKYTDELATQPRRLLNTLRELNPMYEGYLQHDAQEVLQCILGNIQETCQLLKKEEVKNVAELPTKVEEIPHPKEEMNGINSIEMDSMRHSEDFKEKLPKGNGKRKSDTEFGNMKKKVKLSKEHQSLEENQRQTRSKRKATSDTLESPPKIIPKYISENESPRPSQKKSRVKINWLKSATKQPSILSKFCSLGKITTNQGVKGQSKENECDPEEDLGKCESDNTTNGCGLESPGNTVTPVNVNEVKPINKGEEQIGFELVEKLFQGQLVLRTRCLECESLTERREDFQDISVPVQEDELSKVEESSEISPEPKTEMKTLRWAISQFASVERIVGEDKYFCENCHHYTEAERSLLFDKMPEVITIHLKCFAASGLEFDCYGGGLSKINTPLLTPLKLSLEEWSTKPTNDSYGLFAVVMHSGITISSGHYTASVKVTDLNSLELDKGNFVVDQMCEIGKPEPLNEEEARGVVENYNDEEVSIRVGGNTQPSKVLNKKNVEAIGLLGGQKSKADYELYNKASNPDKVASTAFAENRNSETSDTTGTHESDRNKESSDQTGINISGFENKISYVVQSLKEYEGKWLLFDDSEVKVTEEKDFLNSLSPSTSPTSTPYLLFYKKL

Target: Ubiquitin carboxyl-terminal hydrolase 1 (Homo sapiens) (UniProt O94782)
Assay: Inhibitors of USP1/UAF1: Primary Screen; also: nearly all actives have a fitted effect of over 60% in size
Details: recombinant USP1/UAF1, Ub-Rhodamine cleavage fluorescence; activity change, negative = inhibition: at 57.1 µM (top of the series)
Procedure, shortened: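 Step one: compound is pinned into 1nM USP1/UAF1 in HEPES pH 7.8 buffer with TCEP. Step two: 15 min room-temperature incubation. Step three: Ub-Rho (150nM final) starts cleavage, tracked by fluorescence over six one-minute reads.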
% is scaled to controls: 0 for no effect and ±100 for the full control effect; potency is read from the fitted curve at half-maximal effect.

Potency, inconclusive:
Cc1ccc(NC(=O)CN2C(=O)N/C(=C/c3ccccc3OCc3cccc(C(=O)O)c3)C2=O)cc1 31.6 µM [inhibitor, single point]
O=C(NC1CCCCC1)[C@H](CSCc1ccccc1)N1Cc2ccccc2C1=O 14.1 µM [inhibitor, partial curve]
CC(C)N(Cc1nc(-c2ccc(Cl)cc2)no1)C(=O)c1ccc(C(C)(C)C)cc1 44.7 µM [inhibitor, partial curve, poor fit]
Cc1ccccc1NC(=O)c1cccc2c1C(=O)N(C1CCCCC1)C2 0.158 µM [inhibitor, full curve, poor fit]
CCOc1ccc(CC(=O)NCCc2sc3nc(-c4ccc(F)cc4)nn3c2C)cc1 1.78 µM [inhibitor, partial curve, poor fit]
COc1ccc(NC(=O)CN(C)S(=O)(=O)c2ccc3c(c2)CCCN3C(C)=O)cc1 2.82 µM [inhibitor, full curve, poor fit]
CCOc1ccc(C=NN2CCCCCC2)cc1OCC 44.7 µM [inhibitor, single point]
CC(C)(C)c1ccc(-c2nc(NC(=O)CSc3ncnc4sc5c(c34)CCCC5)ns2)cc1 56.2 µM [inhibitor, partial curve, poor fit]
COc1ccc(C(=O)Cc2cc(OC)c(OC)cc2[N+](=O)[O-])c(OC)c1 0.251 µM [inhibitor, full curve, poor fit]
CCOc1ccc(-c2nnc(SCC(=O)N3CCCC3)o2)cc1 7.08 µM [inhibitor, full curve, poor fit]
O=S(=O)(c1ccc(Cl)cc1)N1CCC(O)(c2cccnc2)CC1 0.224 µM [inhibitor, full curve, poor fit]
CCCOc1ccc(-c2cccc(NS(=O)(=O)c3ccccc3)c2)nn1 50.1 µM [inhibitor, partial curve, poor fit]
COc1ccc(S(=O)(=O)N(C)C[C@@H]2Oc3cc(C#CC4CCCCC4)ccc3S(=O)(=O)N([C@@H](C)CO)C[C@@H]2C)cc1 0.251 µM [inhibitor, full curve, poor fit]
CCC(=O)C1=C(c2ccc(F)cc2)N(C(=O)CC)n2cnnc2S1 31.6 µM [inhibitor, partial curve]
CSc1nc(N(CCO)CCO)c2sc3nc(-c4ccco4)c4c(c3c2n1)CCC4 50.1 µM [inhibitor, partial curve, poor fit]
CCc1ccccc1NC(=O)Cn1cc(S(=O)(=O)N2CCCC2)c(S(=O)(=O)N2CCCC2)c1 0.251 µM [inhibitor, full curve, poor fit]
COc1cc(/C=N/NC(=O)c2ccncc2)ccc1OC(=O)c1cccc(Br)c1 31.6 µM [inhibitor, single point]
COc1ccc(Nc2nc3ccccc3nc2NS(=O)(=O)c2cccs2)c(OC)c1 20 µM [inhibitor, partial curve]
CC(C)CN(C(=O)COC(=O)CCSc1ccc(Cl)cc1)c1c(N)n(Cc2ccccc2)c(=O)[nH]c1=O 0.251 µM [inhibitor, full curve, poor fit]
O=C(CC1C(=O)N(c2ccc(F)cc2)C(=O)N1Cc1ccc2c(c1)OCO2)Nc1ccc(Cl)cc1 (configuration not stated) 0.02 µM [inhibitor, full curve, poor fit]
O=C(Nc1ccc2c(c1)C(=O)c1ccccc1-2)c1ccccc1 11.2 µM [inhibitor, partial curve]
CCOc1ccc2oc(C(=O)N(Cc3nnc(-c4ccccc4Cl)o3)C3CC3)c(C)c2c1 6.31 µM [inhibitor, full curve]
CC(C)c1ccccc1NC(=O)COC(=O)c1cccnc1 1.26 µM [inhibitor, partial curve]
Oc1cc(CNC2CCCCC2)c(O)cc1CNC1CCCCC1 28.2 µM [inhibitor, partial curve]
O=C1NN(c2cccc(Br)c2)C(=O)/C1=C\c1ccc(O)cc1 44.7 µM [inhibitor, partial curve, poor fit]
C[C@H](CO)N1C[C@H](C)[C@@H](CN(C)Cc2cccc(C(=O)O)c2)OCc2cnnn2CCCC1=O 0.282 µM [inhibitor, full curve]
C[C@@H]1CN([C@H](C)CO)C(=O)c2cc(Br)cnc2O[C@@H]1CN(C)C(=O)Cc1ccccc1 0.398 µM [inhibitor, full curve]
Cc1cc2c(cc1S(=O)(=O)Nc1ccc(OC(F)(F)F)cc1)OCC(=O)N2 44.7 µM [inhibitor, partial curve, poor fit] and 282 nM [inhibitor, full curve, poor fit]
COc1ccc(NC(=O)CN(c2cc(C)cc(C)c2)S(=O)(=O)c2c(C)noc2C)cc1 1 µM [inhibitor, full curve, poor fit]
Cc1cc(=O)oc2cc(OCC(=O)N/N=C/c3ccccc3O)ccc12 6.31 µM [inhibitor, full curve]
CC1CCCN(c2nc3c(-c4ccc(Cl)cc4)nnn3c3ccccc23)C1 (configuration not stated) 7.94 µM [inhibitor, partial curve, poor fit]
O=C(NCCCN1CCN(c2cccc(Cl)c2)CC1)c1sc2ncccc2c1-n1cccc1 0.398 µM [inhibitor, full curve, poor fit]
CCOc1ccc(NC(=O)CSC2=Nc3ccccc3C3=NC(CCC(=O)NCc4ccco4)C(=O)N23)cc1 (configuration not stated) 126 µM [inhibitor, partial curve, poor fit]
N#Cc1ccc(COc2cccc3cccnc23)cc1 31.6 µM [inhibitor, single point]
CCn1cc2c(n1)-c1c(oc(C(=O)Nc3cccc(C(F)(F)F)c3)c1C)CC2 20 µM [inhibitor, partial curve]
O=C(COC(=O)c1ccc([N+](=O)[O-])s1)NC(=O)NCc1ccccc1 31.6 µM [inhibitor, partial curve, poor fit]
CN1CCc2cc3c(c4c2[C@H]1[C@H](O)c1ccccc1-4)OCO3 44.7 µM [inhibitor, partial curve]
C[C@@H]1CN([C@@H](C)CO)C(=O)CCCn2nncc2CO[C@H]1CN(C)C(=O)Nc1cccc2ccccc12 3.98 µM [inhibitor, full curve, poor fit]
CCOc1ccc(CNC(=O)CCCc2cn(C)c3ccccc23)cc1OC 0.631 µM [inhibitor, full curve]
Cc1ccc(-c2nn3c(C)nnc3s2)cc1NC(=O)c1ccc(-c2cccc(Cl)c2)o1 31.6 µM [inhibitor, partial curve]
COc1cccc(/C(O)=C/c2nc3ccc(C(=O)NCCc4ccc(Cl)cc4)cc3[nH]c2=O)c1 6.31 µM [inhibitor, single point]
Cc1ccc(S(=O)(=O)N/N=C/c2ccc3nccnc3c2)cc1 10 µM [inhibitor, full curve, poor fit]

Potency, active:
O=[N+]([O-])c1cc(Cc2ccccc2)cc(C=Nc2ccc(N3CCOCC3)cc2)c1O 25.1 µM

Activity change, negative = inhibition, inactive:
CCCCOc1ccc(C(=O)N(Cc2ccc(N(C)C)cc2)Cc2ccco2)cc1 -16.6%
O=C(Oc1ccc2[nH]cc(CCN3C(=O)c4ccccc4C3=O)c2c1)c1ccco1 -4.02%
CC(C)(C)OC(=O)N1CCC(c2c(C(=O)NCCN3CCc4ccccc4C3)cnn2-c2ccc(F)cc2)CC1 -25%
Cc1cc(C)nc(-n2nc(C)c3c2N(Cc2ccccc2)C(=O)CC3c2ccc(Cl)cc2)n1 (configuration not stated) 5.35%
O=C1SCCC1NS(=O)(=O)c1ccccc1[N+](=O)[O-] (configuration not stated) -8.78%
Cc1ccc2c(=O)cc(C(=O)Nc3ccc(S(=O)(=O)Nc4onc(C)c4C)cc3)oc2c1C -14.9%
O=C(N/N=C/c1c(F)cccc1Cl)C1CC1 -13.4%
COc1ccc(C(=O)N/N=C/c2sc(N3CCOCC3)nc2-c2ccccc2)cc1OC -17.1%
COc1ccc(Oc2nc(-c3ccccn3)nc3ccccc23)cc1 -1.63%
CC(C)Cc1csc(NC(=O)c2ccc(Cl)cc2)c1C(=O)O -10%
O=C1CC(N2CCN(c3ccccc3)CC2)C(=O)N1c1ccc(Cl)cc1 (configuration not stated) 1.4%
Cc1ccc(-c2nc(SCC(=O)Nc3cc(S(=O)(=O)N4CCCCC4)ccc3Cl)n[nH]2)cc1 -24.8%
O=C(c1ccc2c(c1)N(Cc1ccccc1F)C(=O)c1ccccc1S2(=O)=O)N1CCN(c2ccccn2)CC1 -18.1%
O=C(CSc1nc2ccc(N3CCOCC3)cc2c(=O)n1CCc1ccccc1)NCC1CCCO1 (configuration not stated) -9.92%
Cc1ccc(-c2csc(-c3cc4c([nH]c3=O)CC(c3ccccc3)CC4=O)n2)cc1 (configuration not stated) -5.86%
CC(C)(C)OC(=O)N[C@@H](C(=O)OC(C)(C)C)c1ccccc1 18.6%
CCC(=O)Oc1c(Sc2ccc(Cl)cc2)c(C)nn1-c1ccccc1 -26.4%
CCCc1nc2ccccc2c(C(=O)OCC(=O)Nc2ccc(S(=O)(=O)N3CCOCC3)cc2)c1CC -22.4%
CCOC(=O)c1c(C)[nH]c(C)c1S(=O)(=O)NCC(=O)N1CCN(c2ccccc2OC)CC1 -20.4%
